From publication doi:10.1101/2023.08.20.554038

By UniProt entry, the sequences of proteins in these tests, tags left out.
UniProt P12367: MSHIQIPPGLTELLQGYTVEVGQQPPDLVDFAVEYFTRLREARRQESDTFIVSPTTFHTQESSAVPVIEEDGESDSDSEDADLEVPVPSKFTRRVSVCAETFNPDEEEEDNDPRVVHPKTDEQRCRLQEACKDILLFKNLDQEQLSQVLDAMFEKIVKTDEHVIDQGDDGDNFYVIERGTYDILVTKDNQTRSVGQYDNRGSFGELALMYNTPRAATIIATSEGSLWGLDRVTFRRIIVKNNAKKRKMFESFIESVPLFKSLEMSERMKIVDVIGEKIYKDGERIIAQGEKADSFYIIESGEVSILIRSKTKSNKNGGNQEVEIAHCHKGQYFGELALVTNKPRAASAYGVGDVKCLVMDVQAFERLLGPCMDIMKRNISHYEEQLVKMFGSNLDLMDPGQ
UniProt Q9Y490: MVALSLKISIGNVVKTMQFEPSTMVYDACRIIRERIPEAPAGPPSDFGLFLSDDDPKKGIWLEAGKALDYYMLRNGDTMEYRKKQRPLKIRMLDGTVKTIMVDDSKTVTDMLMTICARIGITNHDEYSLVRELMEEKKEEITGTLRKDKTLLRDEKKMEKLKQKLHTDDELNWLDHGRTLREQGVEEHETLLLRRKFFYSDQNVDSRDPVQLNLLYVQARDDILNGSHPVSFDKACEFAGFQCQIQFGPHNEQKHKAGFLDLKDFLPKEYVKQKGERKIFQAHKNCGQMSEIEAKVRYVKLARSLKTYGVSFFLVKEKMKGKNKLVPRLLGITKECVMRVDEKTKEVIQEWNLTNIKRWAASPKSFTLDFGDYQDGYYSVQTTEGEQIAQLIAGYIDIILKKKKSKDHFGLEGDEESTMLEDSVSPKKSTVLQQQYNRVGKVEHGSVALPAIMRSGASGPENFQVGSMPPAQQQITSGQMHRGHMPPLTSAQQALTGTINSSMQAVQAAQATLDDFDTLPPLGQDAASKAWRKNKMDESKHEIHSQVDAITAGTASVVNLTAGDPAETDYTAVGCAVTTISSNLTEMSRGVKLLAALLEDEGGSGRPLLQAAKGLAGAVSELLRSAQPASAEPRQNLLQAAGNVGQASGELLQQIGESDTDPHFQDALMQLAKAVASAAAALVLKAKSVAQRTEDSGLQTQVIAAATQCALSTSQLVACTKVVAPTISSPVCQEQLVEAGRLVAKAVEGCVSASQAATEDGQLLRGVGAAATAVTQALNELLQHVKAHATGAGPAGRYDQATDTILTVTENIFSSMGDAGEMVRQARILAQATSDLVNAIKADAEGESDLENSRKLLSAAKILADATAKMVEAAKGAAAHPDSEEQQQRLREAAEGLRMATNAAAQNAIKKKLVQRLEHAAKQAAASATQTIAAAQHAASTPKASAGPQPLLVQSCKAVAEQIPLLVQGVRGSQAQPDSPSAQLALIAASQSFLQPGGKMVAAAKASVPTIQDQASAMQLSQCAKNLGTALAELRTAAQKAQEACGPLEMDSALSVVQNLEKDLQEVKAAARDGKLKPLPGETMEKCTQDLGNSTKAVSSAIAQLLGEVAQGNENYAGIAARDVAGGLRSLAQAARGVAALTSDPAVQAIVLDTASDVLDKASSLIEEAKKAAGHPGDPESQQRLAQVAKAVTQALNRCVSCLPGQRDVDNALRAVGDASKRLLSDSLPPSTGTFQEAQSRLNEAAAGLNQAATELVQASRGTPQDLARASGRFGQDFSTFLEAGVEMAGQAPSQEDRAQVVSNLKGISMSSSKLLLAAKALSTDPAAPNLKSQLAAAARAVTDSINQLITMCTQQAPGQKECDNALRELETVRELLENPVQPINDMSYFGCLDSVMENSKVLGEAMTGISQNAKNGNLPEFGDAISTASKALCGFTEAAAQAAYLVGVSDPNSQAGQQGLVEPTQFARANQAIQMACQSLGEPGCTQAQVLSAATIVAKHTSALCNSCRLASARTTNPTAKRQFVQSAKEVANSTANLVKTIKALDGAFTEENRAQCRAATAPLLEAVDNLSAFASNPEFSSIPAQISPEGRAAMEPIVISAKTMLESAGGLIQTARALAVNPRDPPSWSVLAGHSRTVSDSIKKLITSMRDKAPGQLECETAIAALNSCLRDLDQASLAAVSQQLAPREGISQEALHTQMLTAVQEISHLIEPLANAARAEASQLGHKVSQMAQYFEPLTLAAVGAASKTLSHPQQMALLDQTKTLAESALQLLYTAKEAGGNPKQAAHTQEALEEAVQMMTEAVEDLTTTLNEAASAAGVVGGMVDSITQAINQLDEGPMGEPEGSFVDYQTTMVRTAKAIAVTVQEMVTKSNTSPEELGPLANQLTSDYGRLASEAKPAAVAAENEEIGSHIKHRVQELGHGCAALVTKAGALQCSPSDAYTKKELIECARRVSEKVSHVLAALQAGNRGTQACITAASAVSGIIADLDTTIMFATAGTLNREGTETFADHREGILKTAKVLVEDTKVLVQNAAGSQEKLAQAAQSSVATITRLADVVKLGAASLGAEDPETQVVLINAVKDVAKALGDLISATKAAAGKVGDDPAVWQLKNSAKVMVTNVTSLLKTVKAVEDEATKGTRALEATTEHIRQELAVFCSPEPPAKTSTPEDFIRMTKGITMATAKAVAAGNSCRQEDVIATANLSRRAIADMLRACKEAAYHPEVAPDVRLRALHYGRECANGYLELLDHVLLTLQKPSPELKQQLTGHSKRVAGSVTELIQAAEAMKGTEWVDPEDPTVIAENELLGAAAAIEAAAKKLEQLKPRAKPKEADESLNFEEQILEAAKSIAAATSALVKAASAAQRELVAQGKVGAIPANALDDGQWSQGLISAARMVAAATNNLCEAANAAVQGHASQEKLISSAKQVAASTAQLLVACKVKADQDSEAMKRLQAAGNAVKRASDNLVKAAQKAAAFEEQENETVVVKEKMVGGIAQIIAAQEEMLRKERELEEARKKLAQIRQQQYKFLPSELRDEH
UniProt Q9Y4G6: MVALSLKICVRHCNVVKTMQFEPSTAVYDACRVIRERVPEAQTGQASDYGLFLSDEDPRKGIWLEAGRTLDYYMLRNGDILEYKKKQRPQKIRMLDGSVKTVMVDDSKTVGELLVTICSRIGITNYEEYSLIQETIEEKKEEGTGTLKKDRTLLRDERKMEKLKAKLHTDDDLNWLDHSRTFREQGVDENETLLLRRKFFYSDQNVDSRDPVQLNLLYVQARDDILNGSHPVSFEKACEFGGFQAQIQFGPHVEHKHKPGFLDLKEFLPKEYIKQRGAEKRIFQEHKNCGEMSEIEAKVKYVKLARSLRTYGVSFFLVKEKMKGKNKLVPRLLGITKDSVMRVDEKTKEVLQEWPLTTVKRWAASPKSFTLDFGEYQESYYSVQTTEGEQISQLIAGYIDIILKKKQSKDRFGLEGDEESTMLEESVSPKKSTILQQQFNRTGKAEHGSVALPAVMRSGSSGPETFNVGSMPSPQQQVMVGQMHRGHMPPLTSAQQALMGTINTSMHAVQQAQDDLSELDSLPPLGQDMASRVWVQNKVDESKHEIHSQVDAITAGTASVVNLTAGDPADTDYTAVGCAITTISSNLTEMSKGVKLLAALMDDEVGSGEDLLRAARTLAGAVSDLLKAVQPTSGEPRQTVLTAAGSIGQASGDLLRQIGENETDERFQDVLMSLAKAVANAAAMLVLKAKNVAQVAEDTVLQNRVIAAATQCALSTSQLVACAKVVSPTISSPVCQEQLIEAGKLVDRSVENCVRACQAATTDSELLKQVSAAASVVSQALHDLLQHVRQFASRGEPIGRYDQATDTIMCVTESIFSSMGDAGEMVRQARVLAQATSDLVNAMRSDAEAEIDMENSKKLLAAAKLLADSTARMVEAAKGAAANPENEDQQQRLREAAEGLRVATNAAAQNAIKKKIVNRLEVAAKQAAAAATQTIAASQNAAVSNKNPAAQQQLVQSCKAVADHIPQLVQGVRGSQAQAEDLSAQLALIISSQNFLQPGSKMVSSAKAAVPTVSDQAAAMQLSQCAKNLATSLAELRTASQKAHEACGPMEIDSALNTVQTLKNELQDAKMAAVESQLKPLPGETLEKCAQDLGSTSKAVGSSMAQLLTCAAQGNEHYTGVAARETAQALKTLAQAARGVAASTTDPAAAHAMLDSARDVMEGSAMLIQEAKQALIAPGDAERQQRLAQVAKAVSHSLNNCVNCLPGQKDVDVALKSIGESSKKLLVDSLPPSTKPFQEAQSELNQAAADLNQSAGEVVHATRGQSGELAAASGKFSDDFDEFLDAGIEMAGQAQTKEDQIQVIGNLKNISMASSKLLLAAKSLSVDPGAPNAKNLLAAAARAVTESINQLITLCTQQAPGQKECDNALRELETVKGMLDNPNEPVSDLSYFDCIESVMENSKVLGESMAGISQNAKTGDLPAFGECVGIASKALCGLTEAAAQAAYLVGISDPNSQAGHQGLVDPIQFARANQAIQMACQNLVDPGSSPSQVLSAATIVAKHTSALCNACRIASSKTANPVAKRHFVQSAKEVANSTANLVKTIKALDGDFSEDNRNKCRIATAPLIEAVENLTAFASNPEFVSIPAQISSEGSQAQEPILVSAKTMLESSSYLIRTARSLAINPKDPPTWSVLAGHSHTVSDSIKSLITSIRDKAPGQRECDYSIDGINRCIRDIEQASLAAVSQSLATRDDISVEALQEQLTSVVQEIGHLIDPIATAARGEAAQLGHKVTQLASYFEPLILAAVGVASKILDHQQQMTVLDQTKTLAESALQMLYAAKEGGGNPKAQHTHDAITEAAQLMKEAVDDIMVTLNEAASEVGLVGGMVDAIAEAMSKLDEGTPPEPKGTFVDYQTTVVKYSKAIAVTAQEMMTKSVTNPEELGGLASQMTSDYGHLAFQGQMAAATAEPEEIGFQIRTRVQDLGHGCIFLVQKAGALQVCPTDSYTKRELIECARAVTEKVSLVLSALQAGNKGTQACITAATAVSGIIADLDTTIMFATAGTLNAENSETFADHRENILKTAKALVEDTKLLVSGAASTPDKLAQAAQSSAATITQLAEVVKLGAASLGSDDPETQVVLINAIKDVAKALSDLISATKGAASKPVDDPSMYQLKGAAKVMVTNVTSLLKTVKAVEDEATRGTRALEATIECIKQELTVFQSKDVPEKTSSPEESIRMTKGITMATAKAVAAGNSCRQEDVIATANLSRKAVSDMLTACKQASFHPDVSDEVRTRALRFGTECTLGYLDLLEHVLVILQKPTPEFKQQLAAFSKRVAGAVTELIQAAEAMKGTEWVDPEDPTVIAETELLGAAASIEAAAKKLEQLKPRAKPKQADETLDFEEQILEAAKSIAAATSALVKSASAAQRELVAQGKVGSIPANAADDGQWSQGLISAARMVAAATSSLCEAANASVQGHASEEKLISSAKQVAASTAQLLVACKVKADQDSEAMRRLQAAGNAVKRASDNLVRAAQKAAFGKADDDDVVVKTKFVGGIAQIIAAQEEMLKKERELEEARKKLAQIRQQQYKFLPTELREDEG

Target: V5 epitope-tagged murine PKA RIIα fused to miniTurbo biotin ligase (V5-RIIα-mTb), wild type (mouse) (UniProt P12367)
Test: proximity labelling

| Substance | binding |
| --- | --- |
| talin1 (from UniProt Q9Y490 1-2541) | binds |
| talin2 (from UniProt Q9Y4G6 1-2542) | binds |

No constants are given. Whether binding was seen depends on the method and setting. In cells and extracts the contact can be indirect. Here binding means that the protein was enriched with, or labelled near, the bait; the list need not be complete.
